Reference: article PMC9570199

Sequences of proteins named here, by UniProt entry; tags and fusion partners are left off. A change or cut given only in a name is not applied to a line headed by its entry.
UniProt P17931: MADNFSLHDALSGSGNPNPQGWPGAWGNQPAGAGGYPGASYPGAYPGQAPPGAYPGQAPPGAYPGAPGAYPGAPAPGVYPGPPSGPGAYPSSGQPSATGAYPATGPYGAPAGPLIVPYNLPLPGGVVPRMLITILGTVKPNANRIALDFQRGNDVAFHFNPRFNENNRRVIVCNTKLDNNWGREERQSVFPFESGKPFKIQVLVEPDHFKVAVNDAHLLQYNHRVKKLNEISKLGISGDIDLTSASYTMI
UniProt O00214: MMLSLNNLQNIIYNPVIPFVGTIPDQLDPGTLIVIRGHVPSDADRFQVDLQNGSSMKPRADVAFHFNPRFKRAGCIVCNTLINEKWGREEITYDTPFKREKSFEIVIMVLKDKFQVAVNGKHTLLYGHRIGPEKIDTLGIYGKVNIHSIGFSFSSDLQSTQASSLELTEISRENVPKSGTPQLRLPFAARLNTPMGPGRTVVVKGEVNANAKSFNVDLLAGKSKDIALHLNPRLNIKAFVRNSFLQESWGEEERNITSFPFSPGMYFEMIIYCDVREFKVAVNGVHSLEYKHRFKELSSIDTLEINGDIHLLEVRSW
UniProt Q10589: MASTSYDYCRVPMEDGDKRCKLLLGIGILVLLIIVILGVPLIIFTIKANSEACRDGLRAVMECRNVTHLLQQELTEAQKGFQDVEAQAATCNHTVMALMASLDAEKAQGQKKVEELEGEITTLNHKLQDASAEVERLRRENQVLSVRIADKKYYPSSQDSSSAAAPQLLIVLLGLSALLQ

Experiments:
Assay in all cases: pull-down; GST-tagged galectins immobilised on glutathione-agarose beads, incubated with recombinant BST2; eluted, SDS-PAGE, silver stain and western blot with rabbit anti-BST2 polyclonal antibody; both purified
[1] = target: GST-tagged long isoform of Gal-9 (GST-Gal9L) (UniProt O00182)
[2] = target: GST-tagged Gal-3 (GST-Gal3) (UniProt P17931)
[3] = target: GST-tagged Gal-8 (UniProt O00214)

- binding [1]: binds
- binding [2]: no binding
- binding [3]: binds
Substance: Recombinant BST2 protein (Bone Marrow Stromal Cell Antigen 2) (from UniProt Q10589)

Results are given in words; binding and its absence hold for the method and conditions named. For part of these data: Binding calls can cover weak binding; strength is not graded here.
